{"source": "patent US11344534B2", "about": "“Cholinergic agonism for the treatment of pancreatic cancer” (priority 2017, dated 2022)", "system": "Organoid cultures derived from LSL-K-Ras^G12D pancreata not treated by an Adeno-Cre virus", "format": "cell-based", "conditions": "no Adeno-Cre virus (Kras not activated)", "data": [{"smiles": "CN1[C@@H]2C[C@@H](OC(=O)[C@H](CO)c3ccccc3)C[C@H]1[C@@H]1O[C@@H]12", "note": "[scopolamine]", "values": [{"measurement": "sphere forming capacity / growth of WT spheres", "value": "significantly prevents"}]}]}
